# Experimental data as given in the supplement of paper PMC8728848.
# Some of the results follow.
# B1: CALR truncated at D342 (Homo sapiens) (protein)
# chain: EPAVYFKEQFLDGDGWTSRWIESKHKSDFGKFVLSSGKFYGDEEKDKGLQTSQDARFYALSASFEPFSNKGQTLVVQFTVKHEQNIDCGGGYVKLFPNSLDQTDMHGDSEYNIMFGPDICGPGTKKVHVIFNYKGKNVLINKDIRCKDDEFTHLYTLIVRPDNTYEVKIDNSQVESGSLEDDWDFLPPKKIKDPDASKPEDWDERAKIDDPTDSKPEDWDKPEHIPDPDAKKPEDWDEEMDGEWEPPVIQNPEYKGEWKPRQIDNPDYKGTWIHPEIDNPEYSPDPSIYAYDNFGVLGLDLWQVKSGTIFDNFLITNDEAYAEEFGNETWGVTKAAEKQMKD
# Columns and labels:
# Assay in all cases: glycan array binding signal (z-score within array); higher = stronger binding
# Conditions in all cases: glycan notation: IUPAC condensed, linker removed
# [1] = biological target: Glc(a1-4)Glc
# In short: (§1)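 The binding signal is a Z-score computed within each array and averaged over linkers. Arrays of the same protein sequence at different concentrations or buffers were also averaged together. Data originate from 3228 arrays in the Consortium for Functional Glycomics database, kept only where the protein sequence was available.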
# [2] = biological target: Glc(a1-4)Glc(a1-4)Glc(a1-4)Glc
# In short: as §1
# [3] = biological target: Glc(a1-6)Glc(a1-6)Glc
# In short: as §1
# [4] = biological target: Glc(a1-6)Glc(a1-6)Glc(a1-6)Glc
# In short: as §1
# [5] = biological target: Glc(b1-4)Glc
# In short: as §1
# [6] = biological target: Glc(b1-6)Glc
# In short: as §1
# [7] = biological target: GlcA(b1-3)Gal
# In short: as §1
# [8] = biological target: GlcA(b1-3)GlcNAc
# In short: as §1
# [9] = biological target: GlcA(b1-6)Gal
# In short: as §1
# [10] = biological target: GlcNAc(a1-3)Gal(b1-4)GlcNAc
# In short: as §1
# [11] = biological target: GlcNAc(a1-4)Gal(b1-3)GlcNAc
# In short: as §1
# [12] = biological target: GlcNAc(a1-4)Gal(b1-4)GalNAc
# In short: as §1
# [13] = biological target: GlcNAc(a1-4)Gal(b1-4)GlcNAc
# In short: as §1
# [14] = biological target: GlcNAc(a1-4)Gal(b1-4)GlcNAc(b1-3)Gal(b1-4)Glc
# In short: as §1
# [15] = biological target: GlcNAc(a1-4)Gal(b1-4)GlcNAc(b1-3)Gal(b1-4)GlcNAc
# In short: as §1
# [16] = biological target: GlcNAc(a1-4)Gal(b1-4)GlcNAc(b1-3)Gal(b1-4)GlcNAc(b1-3)Gal(b1-4)GlcNAc
# In short: as §1
# [17] = biological target: GlcNAc(a1-4)Gal(b1-4)GlcNAc(b1-3)Gal(b1-4)[Fuc(a1-3)]GlcNAc(b1-3)Gal(b1-4)[Fuc(a1-3)]GlcNAc
# In short: as §1
# [18] = biological target: GlcNAc(a1-6)Gal(b1-4)GlcNAc
# In short: as §1
# [19] = biological target: GlcNAc(b1-2)Gal(b1-3)GalNAc
# In short: as §1
# [20] = biological target: GlcNAc(b1-2)Man(a1-3)[GlcNAc(b1-2)Man(a1-6)]Man(b1-4)GlcNAc(b1-4)GlcNAc
# In short: as §1
# [21] = biological target: GlcNAc(b1-2)Man(a1-3)[GlcNAc(b1-2)Man(a1-6)]Man(b1-4)GlcNAc(b1-4)[Fuc(a1-6)]GlcNAc
# In short: as §1
# [22] = biological target: GlcNAc(b1-2)Man(a1-3)[GlcNAc(b1-4)][GlcNAc(b1-2)Man(a1-6)]Man(b1-4)GlcNAc(b1-4)GlcNAc
# In short: as §1
# [23] = biological target: GlcNAc(b1-2)[GlcNAc(b1-4)]Man(a1-3)[GlcNAc(b1-2)Man(a1-6)]Man(b1-4)GlcNAc(b1-4)GlcNAc
# In short: as §1
# [24] = biological target: GlcNAc(b1-2)[GlcNAc(b1-4)]Man(a1-3)[GlcNAc(b1-4)][GlcNAc(b1-2)Man(a1-6)]Man(b1-4)GlcNAc(b1-4)GlcNAc
# In short: as §1
# [25] = biological target: GlcNAc(b1-2)[GlcNAc(b1-4)]Man(a1-3)[GlcNAc(b1-4)][GlcNAc(b1-2)[GlcNAc(b1-6)]Man(a1-6)]Man(b1-4)GlcNAc(b1-4)GlcNAc
# In short: as §1
# [26] = biological target: GlcNAc(b1-2)[GlcNAc(b1-4)]Man(a1-3)[GlcNAc(b1-4)][GlcNAc(b1-2)[GlcNAc(b1-6)]Man(a1-6)]Man(b1-4)GlcNAc(b1-4)[Fuc(a1-6)]GlcNAc
# In short: as §1
# [27] = biological target: GlcNAc(b1-2)[GlcNAc(b1-6)]Man(a1-6)[GlcNAc(b1-2)Man(a1-3)]Man(b1-4)GlcNAc(b1-4)GlcNAc
# In short: as §1
# [28] = biological target: GlcNAc(b1-2)[GlcNAc(b1-6)]Man(a1-6)[GlcNAc(b1-2)Man(a1-3)]Man(b1-4)GlcNAc(b1-4)[Fuc(a1-6)]GlcNAc
# In short: as §1
# [29] = biological target: GlcNAc(b1-2)[GlcNAc(b1-6)]Man(a1-6)[GlcNAc(b1-2)Man(a1-3)][GlcNAc(b1-4)]Man(b1-4)GlcNAc(b1-4)GlcNAc
# In short: as §1
# [30] = biological target: GlcNAc(b1-3)Gal
# In short: as §1
# [31] = biological target: GlcNAc(b1-3)Gal(b1-3)GalNAc
# In short: as §1
# [32] = biological target: GlcNAc(b1-3)Gal(b1-4)Glc
# In short: as §1
# [33] = biological target: GlcNAc(b1-3)Gal(b1-4)GlcNAc
# In short: as §1
# [34] = biological target: GlcNAc(b1-3)Gal(b1-4)GlcNAc(b1-3)Gal(b1-4)GlcNAc
# In short: as §1
# [35] = biological target: GlcNAc(b1-3)GalNAc
# In short: as §1
# [36] = biological target: GlcNAc(b1-3)Man
# In short: as §1
# [37] = biological target: GlcNAc(b1-3)[GlcNAc(b1-4)][GlcNAc(b1-6)]GlcNAc
# In short: as §1
binder,measurement,setting,value
B1,glycan array binding signal (z-score),[1],-0.124
same,glycan array binding signal (z-score),[2],0.784
same,glycan array binding signal (z-score),[3],0.71
same,glycan array binding signal (z-score),[4],0.722
same,glycan array binding signal (z-score),[5],0.125
same,glycan array binding signal (z-score),[6],0.447
same,glycan array binding signal (z-score),[7],-1.07
same,glycan array binding signal (z-score),[8],-0.61
same,glycan array binding signal (z-score),[9],1.96
same,glycan array binding signal (z-score),[10],-0.73
same,glycan array binding signal (z-score),[11],0.461
same,glycan array binding signal (z-score),[12],-0.521
same,glycan array binding signal (z-score),[13],-1.27
same,glycan array binding signal (z-score),[14],0.573
same,glycan array binding signal (z-score),[15],-0.828
same,glycan array binding signal (z-score),[16],-0.554
same,glycan array binding signal (z-score),[17],2.68
same,glycan array binding signal (z-score),[18],-0.189
same,glycan array binding signal (z-score),[19],-0.975
same,glycan array binding signal (z-score),[20],0.338
same,glycan array binding signal (z-score),[21],-0.046
same,glycan array binding signal (z-score),[22],-0.028
same,glycan array binding signal (z-score),[23],-0.601
same,glycan array binding signal (z-score),[24],-0.472
same,glycan array binding signal (z-score),[25],-0.185
same,glycan array binding signal (z-score),[26],1.35
same,glycan array binding signal (z-score),[27],-0.279
same,glycan array binding signal (z-score),[28],-0.2
same,glycan array binding signal (z-score),[29],-0.104
same,glycan array binding signal (z-score),[30],-0.504
same,glycan array binding signal (z-score),[31],2.56
same,glycan array binding signal (z-score),[32],-0.199
same,glycan array binding signal (z-score),[33],-0.325
same,glycan array binding signal (z-score),[34],-0.257
same,glycan array binding signal (z-score),[35],-1.44
same,glycan array binding signal (z-score),[36],-0.239
same,glycan array binding signal (z-score),[37],1.03

# 2 entries picked at random from the list so far, as already listed:
binder,measurement,setting,value
B1,glycan array binding signal (z-score),[34],-0.257
same,glycan array binding signal (z-score),[25],-0.185
